We go through 3 sequences from paper PMC12796321.

Chains of the proteins cited; added tags and fusions are not shown. Chains listed by the source or under a name are the forms on record and can include a tag or linker.
POLE1 (Pol epsilon catalytic subunit) + POLE2 + POLE3 + POLE4, one chain, as listed by the source, chain 4 of 4: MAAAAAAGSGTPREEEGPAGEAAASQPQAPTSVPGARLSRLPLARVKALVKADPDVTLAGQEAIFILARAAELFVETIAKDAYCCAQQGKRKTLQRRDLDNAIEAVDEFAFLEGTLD

Construct, isoform or probe ends are uncertain for at least one entry. For some assays here: Weaker means in comparison with the reference protein, sequence or condition of that experiment. For some assays here: At least one verdict was read from the data and is not stated in words by the source.

The subject of series [1] is POLE1 (Pol epsilon catalytic subunit) + POLE2 + POLE3 + POLE4. Description: EMSA. The following applies: EMSA: 30 nM DNA, 30-120 nM protein, protein dilution buffer 25 mM Hepes pH 7.5, 100 mM NaCl, 10% glycerol, 0.5 mM EDTA, 1 mM DTT, 0.01% NP-40, recombinant protein, protein details: N-terminal streptavidin tag. In general terms: In EMSA bound probe runs differently from free probe, usually more slowly.

Series [2] has as its system POLE1 (Pol epsilon catalytic subunit) + POLE2. The series can be described thus: EMSA. The following applies: EMSA: 30 nM DNA, 30-120 nM protein, protein dilution buffer 25 mM Hepes pH 7.5, 100 mM NaCl, 10% glycerol, 0.5 mM EDTA, 1 mM DTT, 0.01% NP-40, recombinant protein, protein details: N-terminal streptavidin tag, label: 5' 6FAM on strand 1.

Turning to “AGCTACCATGCCTGCACGAATTAAGCAATTCGTAATCATGGTCATAGCT (double strand) [EMSA dsDNA 49 bp]”, the binding result in series [1] (label: 5' 6FAM on strand 1) is “binds”; in series [2] (without POLE3-POLE4, almost completely unable to bind), “binds more weakly”.
With “AGCTACCATGCCTGCACGAATTAAGCAATTCGTAATCATGGTCATAGCT / CTACAGTTCGTCAGGATTCC / AGCTATGACCATGATTACGAATTGCTTGGAATCCTGACGAACTGTAG [EMSA leading strand fork]”, the binding result was “binds” in series [1] (label: 5' 6FAM on strand 1) and “binds more weakly” in series [2] (without POLE3-POLE4, double shifted band).
Turning to “AGCTACCATGCCTGCACGAATTAAGCAATTCGTAATCATGGTCATAGCT [EMSA ssDNA 49-mer]”, the binding result in series [1] (label: 5' 6FAM, single-stranded DNA) is given as “binds”.
